Reference: article PMC6352565
These are yes or no findings as the source states them, for the method shown. Binding seen in cells or lysates may run through a third protein.

Amino acid sequences for entries named in this document (tags omitted).
UniProt Q9R1E0: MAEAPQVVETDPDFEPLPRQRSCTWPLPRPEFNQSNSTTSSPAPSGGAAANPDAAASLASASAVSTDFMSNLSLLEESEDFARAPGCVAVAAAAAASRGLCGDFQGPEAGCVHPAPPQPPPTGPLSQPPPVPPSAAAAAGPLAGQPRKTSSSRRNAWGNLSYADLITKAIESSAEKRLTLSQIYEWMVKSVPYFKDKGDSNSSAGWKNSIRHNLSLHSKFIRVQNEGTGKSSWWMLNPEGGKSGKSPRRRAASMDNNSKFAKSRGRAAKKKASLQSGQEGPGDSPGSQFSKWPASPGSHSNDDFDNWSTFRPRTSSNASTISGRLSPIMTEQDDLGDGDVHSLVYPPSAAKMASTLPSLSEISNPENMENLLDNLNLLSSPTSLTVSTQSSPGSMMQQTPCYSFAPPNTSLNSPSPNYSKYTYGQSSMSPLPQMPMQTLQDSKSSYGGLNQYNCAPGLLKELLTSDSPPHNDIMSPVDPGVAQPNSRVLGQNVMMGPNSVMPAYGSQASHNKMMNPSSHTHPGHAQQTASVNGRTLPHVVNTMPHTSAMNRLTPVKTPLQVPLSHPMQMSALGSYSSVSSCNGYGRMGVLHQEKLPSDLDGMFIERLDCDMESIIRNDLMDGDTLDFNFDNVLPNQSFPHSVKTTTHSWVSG
UniProt Q9WUK6: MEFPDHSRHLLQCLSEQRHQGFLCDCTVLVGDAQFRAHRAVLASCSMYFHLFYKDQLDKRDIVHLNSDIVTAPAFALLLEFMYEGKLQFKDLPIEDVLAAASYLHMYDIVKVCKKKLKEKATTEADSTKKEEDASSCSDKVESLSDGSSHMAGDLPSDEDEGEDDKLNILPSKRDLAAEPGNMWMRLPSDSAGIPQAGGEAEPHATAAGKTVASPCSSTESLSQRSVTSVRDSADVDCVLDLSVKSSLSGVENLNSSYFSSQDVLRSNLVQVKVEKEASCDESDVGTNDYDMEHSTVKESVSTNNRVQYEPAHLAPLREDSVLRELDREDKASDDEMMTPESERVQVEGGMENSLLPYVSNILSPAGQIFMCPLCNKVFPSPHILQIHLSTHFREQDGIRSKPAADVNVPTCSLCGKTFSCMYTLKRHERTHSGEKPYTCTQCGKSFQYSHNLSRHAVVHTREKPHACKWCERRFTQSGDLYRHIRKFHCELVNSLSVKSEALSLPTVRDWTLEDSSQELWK

Target: cMyc-tagged wild-type Foxo1 (WTFoxo1) (UniProt Q9R1E0)
Test: co-IP; HEK293 cells co-transfected with cMyc-tagged WTFoxo1 or CNFoxo1 and FLAG-tagged Zfp238, cultured in the presence of serum, harvested 48 h after transfection; reciprocal: IP anti-FLAG with blot anti-cMyc, and IP anti-cMyc with blot anti-FLAG; normal mouse IgG as control

binding: no binding
Substance: FLAG-tagged Zfp238 (from UniProt Q9WUK6 1-522)
